# The structures given here were assigned with low confidence; some may be wrong.
# By UniProt entry, the sequences of proteins in these tests, tags left out. Residues count along the entry.
# UniProt Q02763, 771-1124 limits assumed: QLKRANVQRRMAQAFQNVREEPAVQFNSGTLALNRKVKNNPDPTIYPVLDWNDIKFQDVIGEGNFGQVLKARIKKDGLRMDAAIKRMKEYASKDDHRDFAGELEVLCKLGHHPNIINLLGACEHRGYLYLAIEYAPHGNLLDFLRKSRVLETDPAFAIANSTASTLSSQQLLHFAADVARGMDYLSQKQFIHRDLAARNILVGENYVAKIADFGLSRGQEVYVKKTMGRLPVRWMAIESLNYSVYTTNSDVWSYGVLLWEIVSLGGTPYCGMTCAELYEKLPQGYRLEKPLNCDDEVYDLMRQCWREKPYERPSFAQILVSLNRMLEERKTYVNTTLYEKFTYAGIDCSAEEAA
# UniProt P35968, 807-1356 limits assumed: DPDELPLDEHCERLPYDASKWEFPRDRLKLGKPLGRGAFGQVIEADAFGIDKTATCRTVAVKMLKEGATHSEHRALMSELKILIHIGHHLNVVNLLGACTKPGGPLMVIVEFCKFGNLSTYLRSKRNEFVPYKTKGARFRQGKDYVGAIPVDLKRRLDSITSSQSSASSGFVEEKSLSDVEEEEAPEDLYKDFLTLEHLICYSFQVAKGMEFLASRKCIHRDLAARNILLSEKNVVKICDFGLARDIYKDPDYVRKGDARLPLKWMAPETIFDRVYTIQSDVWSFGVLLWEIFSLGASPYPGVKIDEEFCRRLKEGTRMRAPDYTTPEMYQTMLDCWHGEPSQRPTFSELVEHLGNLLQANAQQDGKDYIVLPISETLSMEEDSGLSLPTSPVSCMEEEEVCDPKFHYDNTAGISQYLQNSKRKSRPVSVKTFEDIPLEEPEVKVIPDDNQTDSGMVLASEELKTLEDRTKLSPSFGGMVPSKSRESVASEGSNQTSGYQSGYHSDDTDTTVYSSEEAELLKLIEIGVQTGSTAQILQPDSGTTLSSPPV
# UniProt P08581, 956-1390 limits assumed: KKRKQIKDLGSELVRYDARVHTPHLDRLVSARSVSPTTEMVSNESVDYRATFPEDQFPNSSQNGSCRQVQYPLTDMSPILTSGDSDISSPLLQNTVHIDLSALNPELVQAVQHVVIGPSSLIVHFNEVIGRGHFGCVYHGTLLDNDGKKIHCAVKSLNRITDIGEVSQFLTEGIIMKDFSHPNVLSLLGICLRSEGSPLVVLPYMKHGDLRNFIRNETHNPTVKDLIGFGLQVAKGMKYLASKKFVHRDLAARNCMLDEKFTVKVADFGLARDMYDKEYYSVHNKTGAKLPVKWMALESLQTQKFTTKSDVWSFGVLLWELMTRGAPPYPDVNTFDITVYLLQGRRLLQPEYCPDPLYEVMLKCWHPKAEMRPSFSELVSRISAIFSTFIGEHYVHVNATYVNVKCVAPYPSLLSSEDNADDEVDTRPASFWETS
# Tests used:
# Tie-2 = Tie-2 (Homo sapiens, UniProt Q02763); assay: RTK ELISA, recombinant kinase domain, Tie-2; conditions: read-out: IC50 Tie-2, GST-Tie2/Tek (aa 771-1124) expressed in baculovirus infected insect cells, tested form: HBr
# Description: (§1) Follwing IC50 values were determined in the RTK ELISA using recombinant kinase domains of receptor tyrosine kinases which were expressed in baculovirus infected insect cells.
# (§2) Receptor Tyrosine Kinase Assay
# (§3) The following in vitro assays are used to determine the ability of different compounds to inhibit the transfer of phosphate groups onto tyrosine residues of downstream substrates. The level of phosphorylation is measured by a monoclonal antibody which is specific for phosphorylated tyrosine residues in an enzyme-linked immunosorbent assay (ELISA).
# (§4) The following recombinant kinases were expressed in baculovirus infected insect cells Sf9 and purchased from ProQuinase, Freiburg:
# (§5) If not otherwise indicated all steps are performed at room temperature.
# (§6) 1.) Coat wells of ELISA plate with […] Poly-Glu-Tyr 4:1 in 100 μl/well PBS buffer (137 mM NaCl, 3 mM KCl, 1.5 mM KH2PO4, 8.2 mM Na2HPO4) overnight at 4° C.
# (§7) 2.) Wash 2 times for 5 min each with PBS+0.05% Tween20 […]
# (§8) a) Add 5-30 ng/well kinase in 50 μl/well kinase buffer (100 mM HEPES pH 7.4, 100 mM NaCl, 0.1 mM Na3VO4) b) Add 25 μl/well compound (50 and 5 μM) in 5% DMSO c) Add 25 μl/well 100 μM ATP in 40 mM MnCl2
# (§9) 4.) Wash 3 times for 5 min each with PBS+0.05% Tween20
# (§10) 5.) Add anti phosphotyrosin antibody/HRP 1:10.000 in 100 μl/well PBS+0.05% Tween+0.1 BSA, incubate for 1 h […]
# (§11) 8.) Detect chemoluminescence signals in Tecan Genios reader
# KDR = KDR (Homo sapiens, UniProt P35968); assay: RTK ELISA, recombinant kinase domain, KDR; conditions: read-out: IC50 KDR, GST-KDR (aa807-1356) expressed in baculovirus infected insect cells, tested form: HBr
# Description: as §1, §2, §3, §4, §5, §6, §7, §8, §9, §10, §11
# c-Met = c-Met (Homo sapiens, UniProt P08581); assay: RTK ELISA, recombinant kinase domain, c-Met; conditions: read-out: IC50 c-Met, GST-cMet (aa956-1390) expressed in baculovirus infected insect cells, tested form: HBr
# Description: as §1, §2, §3, §4, §5, §6, §7, §8, §9, §10, §11
compound,measurement,setting,value
CCN(CC)c1ccc(-c2coc(-c3ccncc3)n2)cc1,IC50,Tie-2,> 50 µM
same,IC50,KDR,> 25 µM
same,IC50,c-Met,> 50 µM
